Data as given in the supplement of paper PMC6411743.
± gives the standard deviation of the averaged measurements. The list shows a part of the results, in another mix than the full data. Most values lie at the level of the controls, where differences are scatter.

Chains of the proteins cited; added tags and fusions are not shown. Lines headed by an entry give the natural chain unless they say otherwise; changes in a name come on top.
UniProt P11586, whole entry: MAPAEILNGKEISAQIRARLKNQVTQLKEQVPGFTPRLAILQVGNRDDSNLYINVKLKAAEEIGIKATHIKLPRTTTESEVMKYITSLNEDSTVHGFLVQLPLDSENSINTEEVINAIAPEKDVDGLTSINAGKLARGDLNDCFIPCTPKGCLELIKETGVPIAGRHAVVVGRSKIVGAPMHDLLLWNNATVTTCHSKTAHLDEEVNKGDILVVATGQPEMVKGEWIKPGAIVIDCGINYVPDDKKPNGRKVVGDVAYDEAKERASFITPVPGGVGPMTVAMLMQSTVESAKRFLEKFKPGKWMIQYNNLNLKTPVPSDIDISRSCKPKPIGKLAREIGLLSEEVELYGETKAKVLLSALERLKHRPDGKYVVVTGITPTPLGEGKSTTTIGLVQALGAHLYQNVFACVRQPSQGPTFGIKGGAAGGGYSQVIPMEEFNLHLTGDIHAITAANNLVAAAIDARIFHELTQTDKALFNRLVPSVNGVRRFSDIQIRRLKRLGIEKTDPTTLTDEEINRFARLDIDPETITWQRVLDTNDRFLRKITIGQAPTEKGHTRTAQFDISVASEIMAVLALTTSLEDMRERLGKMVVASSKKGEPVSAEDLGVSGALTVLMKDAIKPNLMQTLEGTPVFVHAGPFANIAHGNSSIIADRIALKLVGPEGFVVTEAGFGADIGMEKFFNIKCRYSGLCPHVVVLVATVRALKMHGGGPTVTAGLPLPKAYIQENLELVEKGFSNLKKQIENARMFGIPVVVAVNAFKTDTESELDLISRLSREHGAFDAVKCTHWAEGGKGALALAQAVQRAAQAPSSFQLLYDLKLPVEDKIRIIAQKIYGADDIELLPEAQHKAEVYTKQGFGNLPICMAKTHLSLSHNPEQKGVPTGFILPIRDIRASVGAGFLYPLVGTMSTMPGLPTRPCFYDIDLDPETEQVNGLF
UniProt P11216: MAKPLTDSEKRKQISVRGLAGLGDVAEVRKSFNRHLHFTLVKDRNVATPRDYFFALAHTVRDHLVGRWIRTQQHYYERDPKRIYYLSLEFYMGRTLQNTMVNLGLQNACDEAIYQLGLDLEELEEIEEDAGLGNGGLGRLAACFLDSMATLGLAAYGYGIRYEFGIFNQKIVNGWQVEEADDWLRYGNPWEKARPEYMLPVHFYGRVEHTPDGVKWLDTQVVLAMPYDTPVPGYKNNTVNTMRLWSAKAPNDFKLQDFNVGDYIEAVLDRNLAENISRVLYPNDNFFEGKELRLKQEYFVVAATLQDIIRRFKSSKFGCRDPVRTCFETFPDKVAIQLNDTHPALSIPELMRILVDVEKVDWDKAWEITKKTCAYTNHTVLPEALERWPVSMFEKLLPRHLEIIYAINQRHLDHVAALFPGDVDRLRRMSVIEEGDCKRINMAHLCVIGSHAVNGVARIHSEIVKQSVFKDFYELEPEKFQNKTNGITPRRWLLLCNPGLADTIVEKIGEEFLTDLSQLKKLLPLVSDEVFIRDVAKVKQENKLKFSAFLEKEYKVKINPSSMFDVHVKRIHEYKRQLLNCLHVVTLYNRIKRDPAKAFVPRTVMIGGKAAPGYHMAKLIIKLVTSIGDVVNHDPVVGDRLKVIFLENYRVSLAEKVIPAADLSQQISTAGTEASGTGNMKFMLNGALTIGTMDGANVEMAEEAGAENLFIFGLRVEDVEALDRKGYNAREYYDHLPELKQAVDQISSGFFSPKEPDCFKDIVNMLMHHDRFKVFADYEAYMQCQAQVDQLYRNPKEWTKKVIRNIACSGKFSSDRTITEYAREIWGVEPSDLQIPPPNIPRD
UniProt P07919: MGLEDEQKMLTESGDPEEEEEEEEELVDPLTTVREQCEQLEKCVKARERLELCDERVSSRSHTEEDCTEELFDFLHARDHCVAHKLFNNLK
UniProt P08559, whole entry: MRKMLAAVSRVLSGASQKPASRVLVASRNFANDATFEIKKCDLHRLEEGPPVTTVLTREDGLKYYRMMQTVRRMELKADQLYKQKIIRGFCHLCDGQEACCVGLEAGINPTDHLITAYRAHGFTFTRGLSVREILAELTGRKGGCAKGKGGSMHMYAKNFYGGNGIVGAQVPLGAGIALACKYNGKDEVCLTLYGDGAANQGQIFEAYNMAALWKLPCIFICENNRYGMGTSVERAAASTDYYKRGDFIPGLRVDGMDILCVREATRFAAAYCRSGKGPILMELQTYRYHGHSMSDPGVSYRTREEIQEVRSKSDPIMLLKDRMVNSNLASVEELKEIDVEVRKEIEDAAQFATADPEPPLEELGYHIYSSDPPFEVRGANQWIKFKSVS
UniProt P07311: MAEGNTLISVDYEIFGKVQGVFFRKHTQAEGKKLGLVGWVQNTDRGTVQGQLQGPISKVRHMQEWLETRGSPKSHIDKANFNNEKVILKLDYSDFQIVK
UniProt P06733, whole entry: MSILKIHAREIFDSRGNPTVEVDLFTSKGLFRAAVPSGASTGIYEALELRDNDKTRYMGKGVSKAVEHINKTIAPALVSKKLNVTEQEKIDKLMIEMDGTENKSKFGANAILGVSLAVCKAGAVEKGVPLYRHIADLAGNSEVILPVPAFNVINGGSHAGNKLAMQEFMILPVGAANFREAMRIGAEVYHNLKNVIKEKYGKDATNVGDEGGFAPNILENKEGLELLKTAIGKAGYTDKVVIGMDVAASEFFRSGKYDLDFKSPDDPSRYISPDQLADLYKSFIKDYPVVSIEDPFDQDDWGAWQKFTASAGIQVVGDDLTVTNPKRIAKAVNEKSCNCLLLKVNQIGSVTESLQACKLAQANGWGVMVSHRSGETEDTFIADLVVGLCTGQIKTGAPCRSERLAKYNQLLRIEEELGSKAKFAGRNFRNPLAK
UniProt P08047, whole entry: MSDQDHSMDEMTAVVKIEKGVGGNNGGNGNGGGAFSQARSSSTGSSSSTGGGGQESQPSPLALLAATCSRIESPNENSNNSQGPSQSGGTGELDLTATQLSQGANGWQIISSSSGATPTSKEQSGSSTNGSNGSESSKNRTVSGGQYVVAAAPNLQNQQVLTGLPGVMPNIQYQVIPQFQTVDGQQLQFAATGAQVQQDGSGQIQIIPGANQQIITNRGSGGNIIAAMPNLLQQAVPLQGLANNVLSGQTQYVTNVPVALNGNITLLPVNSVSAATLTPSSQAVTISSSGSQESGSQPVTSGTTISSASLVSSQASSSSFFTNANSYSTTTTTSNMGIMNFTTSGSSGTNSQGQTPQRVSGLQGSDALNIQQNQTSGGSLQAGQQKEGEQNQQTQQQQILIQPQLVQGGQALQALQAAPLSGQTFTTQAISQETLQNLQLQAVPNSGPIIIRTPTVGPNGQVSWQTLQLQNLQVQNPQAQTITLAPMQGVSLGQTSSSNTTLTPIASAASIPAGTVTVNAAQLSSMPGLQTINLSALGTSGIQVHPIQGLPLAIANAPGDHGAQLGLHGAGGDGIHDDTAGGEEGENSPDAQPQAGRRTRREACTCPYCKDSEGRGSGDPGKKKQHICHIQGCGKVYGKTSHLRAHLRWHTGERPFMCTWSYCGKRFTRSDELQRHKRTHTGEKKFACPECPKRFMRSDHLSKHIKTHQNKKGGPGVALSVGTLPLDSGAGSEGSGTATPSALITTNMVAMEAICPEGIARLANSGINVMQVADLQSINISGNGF
UniProt P15260: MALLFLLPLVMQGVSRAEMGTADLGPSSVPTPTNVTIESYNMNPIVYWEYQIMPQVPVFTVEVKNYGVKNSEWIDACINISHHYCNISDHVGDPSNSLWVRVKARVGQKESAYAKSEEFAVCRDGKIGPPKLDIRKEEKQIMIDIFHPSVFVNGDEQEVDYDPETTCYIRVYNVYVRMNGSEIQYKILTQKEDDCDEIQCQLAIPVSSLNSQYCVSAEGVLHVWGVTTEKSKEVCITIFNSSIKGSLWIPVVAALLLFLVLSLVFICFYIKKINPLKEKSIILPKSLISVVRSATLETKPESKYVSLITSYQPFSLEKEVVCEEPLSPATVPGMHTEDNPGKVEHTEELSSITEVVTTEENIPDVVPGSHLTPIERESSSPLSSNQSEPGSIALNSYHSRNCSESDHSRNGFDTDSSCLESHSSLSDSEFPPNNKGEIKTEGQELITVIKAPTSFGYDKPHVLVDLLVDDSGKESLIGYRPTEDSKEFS
UniProt P14316: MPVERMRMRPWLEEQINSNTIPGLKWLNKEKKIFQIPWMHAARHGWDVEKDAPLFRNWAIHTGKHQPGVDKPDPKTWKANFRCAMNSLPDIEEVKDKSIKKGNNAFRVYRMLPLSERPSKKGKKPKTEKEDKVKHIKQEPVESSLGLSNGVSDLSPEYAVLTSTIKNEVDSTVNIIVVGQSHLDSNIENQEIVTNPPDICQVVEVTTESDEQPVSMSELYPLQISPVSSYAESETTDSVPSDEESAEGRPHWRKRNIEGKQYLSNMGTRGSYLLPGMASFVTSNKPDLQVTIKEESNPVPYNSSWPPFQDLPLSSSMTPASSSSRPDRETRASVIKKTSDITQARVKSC
UniProt O95997: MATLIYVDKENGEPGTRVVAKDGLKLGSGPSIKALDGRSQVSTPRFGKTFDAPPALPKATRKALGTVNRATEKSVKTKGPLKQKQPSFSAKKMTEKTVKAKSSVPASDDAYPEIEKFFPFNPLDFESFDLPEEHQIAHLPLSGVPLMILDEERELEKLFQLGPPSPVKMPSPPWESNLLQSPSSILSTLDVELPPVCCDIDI
UniProt P09972: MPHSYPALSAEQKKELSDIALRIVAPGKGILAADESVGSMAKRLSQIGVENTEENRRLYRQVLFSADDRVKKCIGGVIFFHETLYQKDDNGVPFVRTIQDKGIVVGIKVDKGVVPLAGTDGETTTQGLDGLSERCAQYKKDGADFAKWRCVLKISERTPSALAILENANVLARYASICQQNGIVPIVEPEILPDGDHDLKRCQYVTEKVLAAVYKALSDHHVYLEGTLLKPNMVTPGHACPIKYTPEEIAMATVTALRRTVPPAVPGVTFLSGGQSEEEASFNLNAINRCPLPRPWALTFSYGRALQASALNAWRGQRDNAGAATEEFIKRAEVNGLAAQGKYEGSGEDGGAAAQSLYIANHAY
UniProt P12081: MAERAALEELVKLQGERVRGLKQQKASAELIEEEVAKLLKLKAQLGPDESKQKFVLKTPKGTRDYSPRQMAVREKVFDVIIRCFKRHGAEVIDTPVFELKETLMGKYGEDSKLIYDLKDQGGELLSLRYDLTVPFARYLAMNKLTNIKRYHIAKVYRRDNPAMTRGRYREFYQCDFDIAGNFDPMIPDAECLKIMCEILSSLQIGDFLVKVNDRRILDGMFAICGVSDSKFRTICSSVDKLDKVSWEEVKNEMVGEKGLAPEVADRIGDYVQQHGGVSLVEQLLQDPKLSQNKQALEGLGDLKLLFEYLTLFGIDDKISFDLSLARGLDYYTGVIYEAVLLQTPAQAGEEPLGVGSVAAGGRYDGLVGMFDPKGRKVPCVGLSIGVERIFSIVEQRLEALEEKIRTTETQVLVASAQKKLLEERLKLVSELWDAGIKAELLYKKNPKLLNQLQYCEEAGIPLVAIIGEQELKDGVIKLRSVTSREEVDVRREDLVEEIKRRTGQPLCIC
UniProt P10768: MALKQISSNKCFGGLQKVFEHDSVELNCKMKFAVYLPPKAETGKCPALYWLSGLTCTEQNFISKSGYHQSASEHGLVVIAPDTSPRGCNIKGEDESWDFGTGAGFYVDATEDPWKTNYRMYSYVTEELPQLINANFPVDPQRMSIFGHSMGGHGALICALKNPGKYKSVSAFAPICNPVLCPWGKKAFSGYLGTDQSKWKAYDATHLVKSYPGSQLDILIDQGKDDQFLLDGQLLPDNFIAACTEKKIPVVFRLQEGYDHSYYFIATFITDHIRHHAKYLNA
UniProt Q6EEV4: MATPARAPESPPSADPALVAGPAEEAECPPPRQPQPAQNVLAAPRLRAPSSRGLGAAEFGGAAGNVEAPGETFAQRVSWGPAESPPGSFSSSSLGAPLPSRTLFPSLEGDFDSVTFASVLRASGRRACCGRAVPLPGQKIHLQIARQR
UniProt P08311: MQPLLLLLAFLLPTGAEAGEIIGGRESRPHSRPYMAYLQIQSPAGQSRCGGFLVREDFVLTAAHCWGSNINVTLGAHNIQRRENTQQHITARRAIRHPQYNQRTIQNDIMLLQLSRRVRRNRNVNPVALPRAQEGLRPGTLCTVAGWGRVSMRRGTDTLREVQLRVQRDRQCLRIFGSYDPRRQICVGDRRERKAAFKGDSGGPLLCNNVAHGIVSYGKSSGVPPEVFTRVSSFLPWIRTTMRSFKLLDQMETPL
UniProt P14550: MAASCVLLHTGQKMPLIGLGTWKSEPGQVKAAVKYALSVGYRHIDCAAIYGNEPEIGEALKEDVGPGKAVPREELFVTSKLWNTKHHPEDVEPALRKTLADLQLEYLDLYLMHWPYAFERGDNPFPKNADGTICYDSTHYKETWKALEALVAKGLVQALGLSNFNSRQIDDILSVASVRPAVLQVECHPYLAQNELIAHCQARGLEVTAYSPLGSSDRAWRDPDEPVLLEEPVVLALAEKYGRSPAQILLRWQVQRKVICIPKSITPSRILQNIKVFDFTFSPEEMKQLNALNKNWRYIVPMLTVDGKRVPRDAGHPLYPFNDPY

Compound: Nc1ncnc2c1ncn2[C@@H]1O[C@H](COP(=O)(O)OP(=O)(O)NP(=O)(O)O)[C@@H](O)[C@H]1O [adenylyl imidodiphosphate]
Assay: NP40-soluble protein abundance relative to vehicle (solubility fold change) (ratio); higher = more soluble protein in presence of AMP-PNP
Outline: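 Values are fold changes against the detergent-processed vehicle, based on vsn-normalised intensities. Jurkat crude lysate was treated at eight concentrations from 0.1 to 10 mM (10 min at room temperature, then 3 min at 37 °C), solubilised with 0.8% NP40 and benzonase, ultracentrifuged and analysed by TMT-labelled LC-MS/MS over three independent experiments.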

Target UniProt P05165 and related entries has an NP40-soluble protein abundance (concentration: 0.1mM) of 1.03 ± 0.042 and an NP40-soluble protein abundance (concentration: 0.5mM) of 0.998 ± 0.032.
With TTC4 (UniProt O95801) the NP40-soluble protein abundance (concentration: 0.1mM) was 1 ± 0.018 and the NP40-soluble protein abundance (concentration: 0.5mM) was 0.997 ± 0.042.
Work on LDHB (UniProt P07195) yielded an NP40-soluble protein abundance (concentration: 0.1mM) of 0.985 ± 0.052 and an NP40-soluble protein abundance (concentration: 0.5mM) of 0.975 ± 0.06.
Work on EPRS (UniProt P07814) yielded an NP40-soluble protein abundance (concentration: 0.1mM) of 1.02 ± 0.037 and an NP40-soluble protein abundance (concentration: 0.5mM) of 1.02 ± 0.067.
With UniProt P11586 and related entries the NP40-soluble protein abundance (concentration: 0.1mM) was 0.9953 ± 0.0066 and the NP40-soluble protein abundance (concentration: 0.5mM) was 1 ± 0.016.
For RPS2 (UniProt P15880), the NP40-soluble protein abundance (concentration: 0.1mM) was 1.02 ± 0.035 and the NP40-soluble protein abundance (concentration: 0.5mM) was 0.992 ± 0.031.
With PYGB (UniProt P11216) the NP40-soluble protein abundance (concentration: 0.1mM) was 1.03 ± 0.021 and the NP40-soluble protein abundance (concentration: 0.5mM) was 1 ± 0.068.
UQCRH (UniProt P07919) was tested, and the NP40-soluble protein abundance (concentration: 0.1mM) was 0.974 ± 0.036 and the NP40-soluble protein abundance (concentration: 0.5mM) was 0.967 ± 0.052.
For LAMP1 (UniProt P11279), the NP40-soluble protein abundance (concentration: 0.1mM) was 0.984 ± 0.084 and the NP40-soluble protein abundance (concentration: 0.5mM) was 1.06 ± 0.094.
In the case of UniProt P04049 and related entries, the NP40-soluble protein abundance (concentration: 0.1mM) is reported as 1.02 ± 0.046 and the NP40-soluble protein abundance (concentration: 0.5mM) is reported as 0.994 ± 0.0057.
UniProt P08559 and related entries showed an NP40-soluble protein abundance (concentration: 0.1mM) of 1.07 ± 0.12 and an NP40-soluble protein abundance (concentration: 0.5mM) of 1.04 ± 0.1.
For UniProt P07311 and related entries, the NP40-soluble protein abundance (concentration: 0.1mM) was 1.01 ± 0.064 and the NP40-soluble protein abundance (concentration: 0.5mM) was 1.07 ± 0.11.
UniProt P06733 and related entries gave an NP40-soluble protein abundance (concentration: 0.1mM) of 0.975 ± 0.045 and an NP40-soluble protein abundance (concentration: 0.5mM) of 1.04 ± 0.091.
SP1 (UniProt P08047) showed an NP40-soluble protein abundance (concentration: 0.1mM) of 0.965 ± 0.022 and an NP40-soluble protein abundance (concentration: 0.5mM) of 1.02 ± 0.038.
UniProt P14324 and related entries showed an NP40-soluble protein abundance (concentration: 0.1mM) of 1.02 ± 0.017 and an NP40-soluble protein abundance (concentration: 0.5mM) of 1.02 ± 0.044.
Target SLC25A4 (UniProt P12235) has an NP40-soluble protein abundance (concentration: 0.1mM) of 1.01 ± 0.044 and an NP40-soluble protein abundance (concentration: 0.5mM) of 0.996 ± 0.081.
UniProt O96017 and related entries gave an NP40-soluble protein abundance (concentration: 0.1mM) of 0.979 ± 0.043 and an NP40-soluble protein abundance (concentration: 0.5mM) of 0.975 ± 0.059.
UniProt P13929 and related entries gave an NP40-soluble protein abundance (concentration: 0.1mM) of 0.985 ± 0.042 and an NP40-soluble protein abundance (concentration: 0.5mM) of 1.01 ± 0.044.
HCLS1 (UniProt P14317) showed an NP40-soluble protein abundance (concentration: 0.1mM) of 0.961 ± 0.032 and an NP40-soluble protein abundance (concentration: 0.5mM) of 1.05 ± 0.066.
RNH1 (UniProt P13489) gave an NP40-soluble protein abundance (concentration: 0.1mM) of 0.969 ± 0.022 and an NP40-soluble protein abundance (concentration: 0.5mM) of 0.973 ± 0.032.
Target DLAT (UniProt P10515) has an NP40-soluble protein abundance (concentration: 0.1mM) of 1.18 ± 0.23 and an NP40-soluble protein abundance (concentration: 0.5mM) of 1.04 ± 0.16.
IFNGR1 (UniProt P15260) was tested, and the NP40-soluble protein abundance (concentration: 0.1mM) was 1 ± 0.042 and the NP40-soluble protein abundance (concentration: 0.5mM) was 1 ± 0.054.
UniProt P14316 and related entries showed an NP40-soluble protein abundance (concentration: 0.1mM) of 0.991 ± 0.036 and an NP40-soluble protein abundance (concentration: 0.5mM) of 1 ± 0.049.
For PTTG1 (UniProt O95997), the NP40-soluble protein abundance (concentration: 0.1mM) was 0.993 ± 0.021 and the NP40-soluble protein abundance (concentration: 0.5mM) was 0.9698 ± 0.0063.
Work on ALDOC (UniProt P09972) yielded an NP40-soluble protein abundance (concentration: 0.1mM) of 1.01 ± 0.061 and an NP40-soluble protein abundance (concentration: 0.5mM) of 1.04 ± 0.036.
With SYF2 (UniProt O95926) the NP40-soluble protein abundance (concentration: 0.1mM) was 0.9807 ± 0.002 and the NP40-soluble protein abundance (concentration: 0.5mM) was 0.9987 ± 0.0059.
For UniProt P0C869-6|P0C869-7|P0C869-8, the NP40-soluble protein abundance (concentration: 0.1mM) was 1.018 ± 0.0014 and the NP40-soluble protein abundance (concentration: 0.5mM) was 1 ± 0.051.
HARS (UniProt P12081) gave an NP40-soluble protein abundance (concentration: 0.1mM) of 0.982 ± 0.012 and an NP40-soluble protein abundance (concentration: 0.5mM) of 1.02 ± 0.016.
CST3 (UniProt P01034) gave an NP40-soluble protein abundance (concentration: 0.1mM) of 1 ± 0.013 and an NP40-soluble protein abundance (concentration: 0.5mM) of 0.9988 ± 0.0071.
UniProt P09525 and related entries showed an NP40-soluble protein abundance (concentration: 0.1mM) of 1.01 ± 0.019 and an NP40-soluble protein abundance (concentration: 0.5mM) of 1 ± 0.059.
For UniProt P14635 and related entries, the NP40-soluble protein abundance (concentration: 0.1mM) was 1.01 ± 0.033 and the NP40-soluble protein abundance (concentration: 0.5mM) was 1.02 ± 0.045.
Work on TOP1 (UniProt P11387) yielded an NP40-soluble protein abundance (concentration: 0.1mM) of 0.986 ± 0.014 and an NP40-soluble protein abundance (concentration: 0.5mM) of 1.01 ± 0.033.
Work on ITGA4 (UniProt P13612) yielded an NP40-soluble protein abundance (concentration: 0.1mM) of 1 ± 0.02 and an NP40-soluble protein abundance (concentration: 0.5mM) of 1.01 ± 0.013.
For ESD (UniProt P10768), the NP40-soluble protein abundance (concentration: 0.1mM) was 0.961 ± 0.029 and the NP40-soluble protein abundance (concentration: 0.5mM) was 0.972 ± 0.024.
Target UniProt P04424 and related entries has an NP40-soluble protein abundance (concentration: 0.1mM) of 0.999 ± 0.034 and an NP40-soluble protein abundance (concentration: 0.5mM) of 0.963 ± 0.015.
With UniProt O95822-2|O95822 the NP40-soluble protein abundance (concentration: 0.1mM) was 1.07 ± 0.11 and the NP40-soluble protein abundance (concentration: 0.5mM) was 0.982 ± 0.08.
PARP1 (UniProt P09874) showed an NP40-soluble protein abundance (concentration: 0.1mM) of 1.01 ± 0.012 and an NP40-soluble protein abundance (concentration: 0.5mM) of 1.03 ± 0.019.
With UniProt P11234 and related entries the NP40-soluble protein abundance (concentration: 0.1mM) was 0.9811 ± 0.0053 and the NP40-soluble protein abundance (concentration: 0.5mM) was 1.02 ± 0.025.
For XRCC6 (UniProt P12956), the NP40-soluble protein abundance (concentration: 0.1mM) was 0.78 ± 0.16 and the NP40-soluble protein abundance (concentration: 0.5mM) was 1.01 ± 0.066.
UniProt P04921 and related entries showed an NP40-soluble protein abundance (concentration: 0.1mM) of 1.25 ± 0.37 and an NP40-soluble protein abundance (concentration: 0.5mM) of 1.11 ± 0.1.
With UniProt P05771 and related entries the NP40-soluble protein abundance (concentration: 0.1mM) was 1.02 ± 0.029 and the NP40-soluble protein abundance (concentration: 0.5mM) was 1.046 ± 0.0082.
For “P0CAP2 and related entries (UniProt Q6EEV4+P0CAP2)”, the NP40-soluble protein abundance (concentration: 0.1mM) was 0.9688 ± 0.0027 and the NP40-soluble protein abundance (concentration: 0.5mM) was 0.972 ± 0.048.
Target CTSG (UniProt P08311) has an NP40-soluble protein abundance (concentration: 0.1mM) of 1.02 ± 0.014 and an NP40-soluble protein abundance (concentration: 0.5mM) of 1.01 ± 0.025.
Work on UniProt P13861 and related entries yielded an NP40-soluble protein abundance (concentration: 0.1mM) of 0.9836 ± 0.007 and an NP40-soluble protein abundance (concentration: 0.5mM) of 0.9849 ± 0.0095.
In the case of AKR1A1 (UniProt P14550), the NP40-soluble protein abundance (concentration: 0.1mM) is reported as 0.971 ± 0.051 and the NP40-soluble protein abundance (concentration: 0.5mM) is reported as 0.957 ± 0.031.
CENPB (UniProt P07199) was tested, and the NP40-soluble protein abundance (concentration: 0.1mM) was 0.972 ± 0.018 and the NP40-soluble protein abundance (concentration: 0.5mM) was 1 ± 0.022.
RPN1 (UniProt P04843) gave an NP40-soluble protein abundance (concentration: 0.1mM) of 0.997 ± 0.013 and an NP40-soluble protein abundance (concentration: 0.5mM) of 1.01 ± 0.042.
“UniProt P15529-2|P15529-3|P15529-4|P15529-5|P15529-6|P15529-7” gave an NP40-soluble protein abundance (concentration: 0.1mM) of 0.957 ± 0.026 and an NP40-soluble protein abundance (concentration: 0.5mM) of 0.988 ± 0.055.
UniProt P06127 was tested, and the NP40-soluble protein abundance (concentration: 0.1mM) was 1 ± 0.032 and the NP40-soluble protein abundance (concentration: 0.5mM) was 0.994 ± 0.052.
For H1F0 (UniProt P07305), the NP40-soluble protein abundance (concentration: 0.1mM) was 1.02 ± 0.025 and the NP40-soluble protein abundance (concentration: 0.5mM) was 1.06 ± 0.016.
For UniProt O95749 and related entries, the NP40-soluble protein abundance (concentration: 0.1mM) was 1.02 ± 0.053 and the NP40-soluble protein abundance (concentration: 0.5mM) was 1.01 ± 0.065.
Target FUCA1 (UniProt P04066) has an NP40-soluble protein abundance (concentration: 0.1mM) of 0.994 ± 0.018 and an NP40-soluble protein abundance (concentration: 0.5mM) of 0.99 ± 0.046.
UniProt P05023 and related entries was tested, and the NP40-soluble protein abundance (concentration: 0.1mM) was 1.01 ± 0.056 and the NP40-soluble protein abundance (concentration: 0.5mM) was 1.03 ± 0.054.
Target UROD (UniProt P06132) has an NP40-soluble protein abundance (concentration: 0.1mM) of 1.016 ± 0.0053 and an NP40-soluble protein abundance (concentration: 0.5mM) of 0.996 ± 0.011.
For PFN1 (UniProt P07737), the NP40-soluble protein abundance (concentration: 0.1mM) was 0.993 ± 0.1 and the NP40-soluble protein abundance (concentration: 0.5mM) was 0.975 ± 0.024.
Target UniProt P06756 and related entries has an NP40-soluble protein abundance (concentration: 0.1mM) of 0.975 ± 0.019 and an NP40-soluble protein abundance (concentration: 0.5mM) of 0.985 ± 0.015.
UniProt P12955 and related entries showed an NP40-soluble protein abundance (concentration: 0.1mM) of 0.997 ± 0.036 and an NP40-soluble protein abundance (concentration: 0.5mM) of 1.01 ± 0.038.
Work on P4HB (UniProt P07237) yielded an NP40-soluble protein abundance (concentration: 0.1mM) of 1 ± 0.014 and an NP40-soluble protein abundance (concentration: 0.5mM) of 0.996 ± 0.048.
